Reference: PubChem BioAssay (NCATS)
The list shows a part of the results. These are further read-outs of the screen, such as a control signal, another cell line or another target. No call is given for them. The list favours compounds with an active or inconclusive main result.

Test: qHTS for identification of novel therapeutic agents for treatment of microphthalmiaassociated transcription factor (MiT) renal cell carcinoma (RCC) (AID 1963991)
Settings: TFE3-RCC UOK109 viability, CellTiter-Glo, 48 h; measured here: UOK109 Z-AUC; stronger effect = lower value
Procedure, shortened: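 Three TFE3-fusion RCC cell lines (UOK109, UOK124, UOK145), 500 cells/well, were exposed to the 1912-compound MIPE 4.0 library for 48 hours at 37 C. Viability was read by CellTiter-Glo luminescence, normalised to DMSO (100%) and empty wells (0%), with 11-concentration curve fits.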

Question: Which z-score does the source give for `CC(=O)c1c(C)c2cnc(Nc3ccc(N4CCNCC4)cn3)nc2n(C2CCCC2)c1=O` here?
Answer: -0.522

Question: With `CC(C)=CCCC(C)=CCCC(C)=CCSc1ccccc1C(=O)O` as the compound, how does the z-score read?
Answer: 0.182

Question: Which z-score does the source give for `CC1(O)CC(c2nc(-c3ccc4ccc(-c5ccccc5)nc4c3)c3c(N)nccn23)C1` (centres undefined) here?
Answer: 0.0727

Question: Which z-score does the source give for `CC(=O)N1CCN(c2ccc(OCc3nn(C)c(C)c3-c3cccc4c(CCCOc5cc(C)c(Cl)c(C)c5)c(C(=O)O)n(Cc5cccnc5)c34)cc2)CC1` here?
Answer: 0.433

Question: Which z-score does the source give for `CN(C)CCOc1ccc(-c2nc(-c3ccc4c(c3)CCC4=NO)c(-c3ccncc3)[nH]2)cc1` here?
Answer: -0.263

Question: For `CC1CCN(c2cc(N3CCN(C)CC3)ccc2NC(=O)c2cc(C#N)c[nH]2)CC1`, which z-score is on record?
Answer: 0.867

Question: For `CC(C)c1c(C(=O)Nc2ccccc2)c(-c2ccccc2)c(-c2ccc(F)cc2)n1CC[C@H](O)C[C@@H](O)CC(=O)O`, which z-score is on record?
Answer: 0.25

Question: With `C=Cc1c(C)c2cc3nc(cc4[nH]c(cc5nc(cc1[nH]2)C(C)=C5CCC(=O)O)c(CCC(=O)OC)c4C)[C@@]1(C)C3=CC=C(C(=O)OC)[C@H]1C(=O)OC` as the compound, how does the z-score read?
Answer: -1.42

Question: Which z-score does the source give for `O=S(=O)(NCCNCC=Cc1ccc(Br)cc1)c1cccc2cnccc12` here?
Answer: 0.771

Question: Which z-score does the source give for `CNC(=O)c1cc(COc2nnc(Nc3ccc(Cl)cc3)c3ccoc23)ccn1` here?
Answer: 0.26

Question: With `CC[C@H](Nc1ncnc2nc[nH]c12)c1nc2cccc(F)c2c(=O)n1-c1ccccc1` as the compound, how does the z-score read?
Answer: -1.46

Question: With `C[C@@]1(c2cc(-c3cncnc3)c(F)cc2F)CCSC(N)=N1` as the compound, how does the z-score read?
Answer: -0.622

Question: For `CCN(CC)CCCCNc1nc2cc(Cl)c(Cl)cc2nc1-c1ccc(-c2cccs2)s1`, which z-score is on record?
Answer: 0.0449

Question: With `Nc1ccn([C@@H]2O[C@H](CO)[C@@H](O)[C@H]2O)c(=O)n1` as the compound, how does the z-score read?
Answer: -0.382

Question: For `COc1cc(C[C@@H](CO)[C@H](CO)Cc2ccc(O)c(OC)c2)ccc1O`, which z-score is on record?
Answer: -0.81

Question: With `CN(C)CC=CC(=O)Nc1cc2c(Nc3ccc(F)c(Cl)c3)ncnc2cc1O[C@H]1CCOC1` as the compound, how does the z-score read?
Answer: -3.12

Question: Which z-score does the source give for `CNC(=O)c1c(-c2ccc(F)cc2)oc2cc(N(CCO)S(C)(=O)=O)c(C3CC3)cc12` here?
Answer: -0.179

Question: Which z-score does the source give for `O=c1[nH]c(=O)n([C@H]2C[C@@H](O)[C@@H](CO)O2)cc1C(F)(F)F` here?
Answer: 0.697

Question: With `CC(C)(N)C(=O)N[C@H](COCc1ccccc1)C(=O)N1CCC2(CC1)CN(S(C)(=O)=O)c1ccccc12` as the compound, how does the z-score read?
Answer: 0.666

Question: For `N#CC(c1ccnc(NCCc2cccnc2)n1)c1nc2ccccc2s1` (centres undefined), which z-score is on record?
Answer: -0.511

Question: Which z-score does the source give for `COc1ccc(COc2cc3oc(=O)c4cc(C(C)O)ccc4c3cc2OC)cc1` (centres undefined) here?
Answer: 0.507

Question: For `O=C1NC(=O)C(=Cc2ccc(-c3ccc(F)cc3O)o2)S1`, which z-score is on record?
Answer: 0.644

Question: With `CCOC(=O)N1CCN([N+]([O-])=NOc2cc(ON=[N+]([O-])N3CCN(C(=O)OCC)CC3)c([N+](=O)[O-])cc2[N+](=O)[O-])CC1` as the compound, how does the z-score read?
Answer: -0.0725

Question: For `C[C@@H]1[C@H](O)[C@@H](C)C=CC=CC=CC=CC=CC=CC=C[C@H](O[C@@H]2O[C@H](C)[C@H](O)[C@H](N)[C@@H]2O)C[C@@H]2O[C@](O)(C[C@@H](O)C[C@@H](O)[C@H](O)CC[C@@H](O)C[C@@H](O)CC(=O)O[C@H]1C)C[C@H](O)[C@@H]2C(=O)O`, which z-score is on record?
Answer: 1.14

Question: For `CN1CCCN(C(=O)c2cccc(-c3ccc(C=C4C(=O)Nc5ccc(Cl)cc54)o3)c2)CC1`, which z-score is on record?
Answer: 0.105

Question: For `CCOC(=O)N1CCN([N+]([O-])=NOc2ccc([N+](=O)[O-])cc2C#N)CC1`, which z-score is on record?
Answer: -0.786

Question: With `CN(C)S(=O)(=O)c1ccc2c(c1)C(=Cc1cc3c([nH]1)CCCC3)C(=O)N2` as the compound, how does the z-score read?
Answer: 0.331

Question: With `C[C@@H]1C[C@H]2[C@@H]3CCC4=CC(=O)C=C[C@]4(C)[C@@]3(Cl)[C@@H](O)C[C@]2(C)[C@@]1(OC(=O)c1ccco1)C(=O)CCl` as the compound, how does the z-score read?
Answer: -0.555

Question: Which z-score does the source give for `CC(C=CC=C(C)C=CC1=C(C)CCCC1(C)C)=CC=CC=C(C)C=CC=C(C)C=CC1=C(C)CCCC1(C)C` here?
Answer: 1.01

Question: For `Cn1cnc(=N)c2[nH]cnc21`, which z-score is on record?
Answer: -0.191

Question: With `CCn1c(-c2nonc2N)nc2c(C#CC(C)(C)O)ncc(OC[C@H]3CCCNC3)c21` as the compound, how does the z-score read?
Answer: -0.00371

Question: For `O=C(C=Cc1cccc(S(=O)(=O)Nc2ccccc2)c1)NO`, which z-score is on record?
Answer: -0.77

Question: Which z-score does the source give for `CC(=O)ON=C1C(c2c(O)[nH]c3cc(Br)ccc23)=Nc2ccccc21` here?
Answer: -1.1

Question: Which z-score does the source give for `CS(=O)(=O)Oc1ccc2c(NC(N)=O)c(C(=O)c3ccc(Cl)cc3Cl)oc2c1` here?
Answer: -0.644

Question: With `Nc1ncn([C@@H]2O[C@H](CO)[C@@H](O)[C@@H]2O)c(=O)n1` as the compound, how does the z-score read?
Answer: -0.184

Question: For `CN(C)CC(C)(C)CNc1nn2c(-c3ccccc3)nnc2cc1C1CCC1`, which z-score is on record?
Answer: -0.908

Question: Which z-score does the source give for `COc1cc([C@@H]2c3cc4c(cc3[C@@H](O[C@@H]3O[C@@H]5CO[C@@H](c6cccs6)O[C@@H]5[C@H](O)[C@@H]3O)[C@H]3COC(=O)[C@H]23)OCO4)cc(OC)c1O` here?
Answer: -0.248

Question: For `C[C@]1(CO)CN(c2cc(C(=O)Nc3ccc4c(c3)-c3c(c(C(N)=O)nn3-c3ccc(F)cc3)CC4)c(Cl)cn2)C[C@@]1(C)CO`, which z-score is on record?
Answer: -0.547

Question: For `O=C(O)c1ccc(-c2cc3cccnc3c(-c3ccc4nonc4c3)n2)cc1`, which z-score is on record?
Answer: 0.0059
